Measurements published in the supplement of paper PMC10849652.
The other results are listed elsewhere or left out.

Amino acid sequences for entries named in this document (tags omitted). A change or cut given only in a name is not applied to a line headed by its entry.
UniProt Q9Y6E2: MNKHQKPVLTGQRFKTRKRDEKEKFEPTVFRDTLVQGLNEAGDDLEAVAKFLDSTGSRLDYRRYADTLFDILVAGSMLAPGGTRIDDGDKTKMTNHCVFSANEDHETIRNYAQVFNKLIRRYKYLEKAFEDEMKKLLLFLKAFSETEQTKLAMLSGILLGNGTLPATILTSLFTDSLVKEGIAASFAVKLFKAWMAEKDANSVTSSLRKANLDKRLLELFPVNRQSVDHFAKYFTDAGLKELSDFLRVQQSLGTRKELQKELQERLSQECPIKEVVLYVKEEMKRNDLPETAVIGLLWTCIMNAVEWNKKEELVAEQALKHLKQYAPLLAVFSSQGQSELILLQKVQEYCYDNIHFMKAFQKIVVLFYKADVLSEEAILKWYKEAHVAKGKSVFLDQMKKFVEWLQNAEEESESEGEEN
UniProt Q96GQ5: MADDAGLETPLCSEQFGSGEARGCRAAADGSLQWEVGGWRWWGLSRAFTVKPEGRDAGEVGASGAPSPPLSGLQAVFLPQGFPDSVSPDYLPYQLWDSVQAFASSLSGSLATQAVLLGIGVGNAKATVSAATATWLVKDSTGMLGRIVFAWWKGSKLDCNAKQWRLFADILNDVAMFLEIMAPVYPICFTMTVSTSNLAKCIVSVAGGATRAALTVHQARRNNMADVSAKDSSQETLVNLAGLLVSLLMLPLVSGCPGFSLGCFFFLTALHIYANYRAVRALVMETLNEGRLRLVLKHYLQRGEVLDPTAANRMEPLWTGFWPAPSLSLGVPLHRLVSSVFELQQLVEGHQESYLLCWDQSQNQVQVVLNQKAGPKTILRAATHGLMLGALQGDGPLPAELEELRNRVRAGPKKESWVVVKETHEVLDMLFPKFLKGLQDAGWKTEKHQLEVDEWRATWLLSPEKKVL
UniProt Q5JPI3: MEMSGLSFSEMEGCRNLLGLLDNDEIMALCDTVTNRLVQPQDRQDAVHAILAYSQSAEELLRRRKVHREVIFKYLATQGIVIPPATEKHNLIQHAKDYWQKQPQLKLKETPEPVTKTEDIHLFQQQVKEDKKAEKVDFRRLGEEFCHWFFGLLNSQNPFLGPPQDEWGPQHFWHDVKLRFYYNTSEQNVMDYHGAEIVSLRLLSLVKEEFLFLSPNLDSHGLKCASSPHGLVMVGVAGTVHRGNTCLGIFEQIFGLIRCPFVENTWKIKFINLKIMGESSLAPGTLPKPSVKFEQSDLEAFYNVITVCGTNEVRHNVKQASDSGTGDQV
UniProt Q5T5Y3: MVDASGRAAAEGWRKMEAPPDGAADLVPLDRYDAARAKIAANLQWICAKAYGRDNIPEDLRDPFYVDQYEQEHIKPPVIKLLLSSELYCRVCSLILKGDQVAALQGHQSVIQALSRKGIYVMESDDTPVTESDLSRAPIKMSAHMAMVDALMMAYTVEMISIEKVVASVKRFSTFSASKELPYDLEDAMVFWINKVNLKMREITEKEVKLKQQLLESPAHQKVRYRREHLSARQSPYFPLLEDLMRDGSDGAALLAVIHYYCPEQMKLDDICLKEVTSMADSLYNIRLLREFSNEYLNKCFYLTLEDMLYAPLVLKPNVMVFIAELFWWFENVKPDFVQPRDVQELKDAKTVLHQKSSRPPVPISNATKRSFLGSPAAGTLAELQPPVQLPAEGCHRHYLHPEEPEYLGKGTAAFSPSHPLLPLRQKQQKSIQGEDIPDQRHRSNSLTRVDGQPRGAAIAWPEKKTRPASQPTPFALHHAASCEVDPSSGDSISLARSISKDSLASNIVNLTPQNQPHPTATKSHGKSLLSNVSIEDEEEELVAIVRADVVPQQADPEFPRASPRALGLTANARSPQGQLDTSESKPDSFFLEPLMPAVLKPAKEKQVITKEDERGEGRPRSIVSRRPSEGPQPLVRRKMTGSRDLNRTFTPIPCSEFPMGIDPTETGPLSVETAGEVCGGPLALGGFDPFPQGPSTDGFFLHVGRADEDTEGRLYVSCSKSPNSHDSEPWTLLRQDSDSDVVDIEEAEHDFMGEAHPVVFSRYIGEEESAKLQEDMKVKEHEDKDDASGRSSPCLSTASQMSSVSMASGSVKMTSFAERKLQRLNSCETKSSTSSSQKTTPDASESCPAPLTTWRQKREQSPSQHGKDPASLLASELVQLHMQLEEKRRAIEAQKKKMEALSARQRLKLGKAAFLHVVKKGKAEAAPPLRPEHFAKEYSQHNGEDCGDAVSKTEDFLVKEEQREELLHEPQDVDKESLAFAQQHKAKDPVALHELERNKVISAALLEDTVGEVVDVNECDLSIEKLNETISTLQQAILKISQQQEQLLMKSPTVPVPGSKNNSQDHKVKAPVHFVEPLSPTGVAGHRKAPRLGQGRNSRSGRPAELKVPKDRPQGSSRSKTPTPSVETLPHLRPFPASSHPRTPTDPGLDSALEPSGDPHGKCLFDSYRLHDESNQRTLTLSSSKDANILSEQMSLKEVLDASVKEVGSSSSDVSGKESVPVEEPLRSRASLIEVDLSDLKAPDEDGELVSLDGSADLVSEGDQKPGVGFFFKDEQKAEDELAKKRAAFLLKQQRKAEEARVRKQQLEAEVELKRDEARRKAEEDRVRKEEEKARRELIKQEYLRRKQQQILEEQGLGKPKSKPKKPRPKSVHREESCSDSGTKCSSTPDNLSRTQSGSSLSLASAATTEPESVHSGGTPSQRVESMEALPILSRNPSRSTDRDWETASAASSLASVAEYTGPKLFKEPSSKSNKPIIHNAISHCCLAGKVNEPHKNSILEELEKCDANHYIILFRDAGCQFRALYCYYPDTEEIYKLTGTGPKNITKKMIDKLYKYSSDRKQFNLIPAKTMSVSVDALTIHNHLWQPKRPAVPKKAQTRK
UniProt P27708: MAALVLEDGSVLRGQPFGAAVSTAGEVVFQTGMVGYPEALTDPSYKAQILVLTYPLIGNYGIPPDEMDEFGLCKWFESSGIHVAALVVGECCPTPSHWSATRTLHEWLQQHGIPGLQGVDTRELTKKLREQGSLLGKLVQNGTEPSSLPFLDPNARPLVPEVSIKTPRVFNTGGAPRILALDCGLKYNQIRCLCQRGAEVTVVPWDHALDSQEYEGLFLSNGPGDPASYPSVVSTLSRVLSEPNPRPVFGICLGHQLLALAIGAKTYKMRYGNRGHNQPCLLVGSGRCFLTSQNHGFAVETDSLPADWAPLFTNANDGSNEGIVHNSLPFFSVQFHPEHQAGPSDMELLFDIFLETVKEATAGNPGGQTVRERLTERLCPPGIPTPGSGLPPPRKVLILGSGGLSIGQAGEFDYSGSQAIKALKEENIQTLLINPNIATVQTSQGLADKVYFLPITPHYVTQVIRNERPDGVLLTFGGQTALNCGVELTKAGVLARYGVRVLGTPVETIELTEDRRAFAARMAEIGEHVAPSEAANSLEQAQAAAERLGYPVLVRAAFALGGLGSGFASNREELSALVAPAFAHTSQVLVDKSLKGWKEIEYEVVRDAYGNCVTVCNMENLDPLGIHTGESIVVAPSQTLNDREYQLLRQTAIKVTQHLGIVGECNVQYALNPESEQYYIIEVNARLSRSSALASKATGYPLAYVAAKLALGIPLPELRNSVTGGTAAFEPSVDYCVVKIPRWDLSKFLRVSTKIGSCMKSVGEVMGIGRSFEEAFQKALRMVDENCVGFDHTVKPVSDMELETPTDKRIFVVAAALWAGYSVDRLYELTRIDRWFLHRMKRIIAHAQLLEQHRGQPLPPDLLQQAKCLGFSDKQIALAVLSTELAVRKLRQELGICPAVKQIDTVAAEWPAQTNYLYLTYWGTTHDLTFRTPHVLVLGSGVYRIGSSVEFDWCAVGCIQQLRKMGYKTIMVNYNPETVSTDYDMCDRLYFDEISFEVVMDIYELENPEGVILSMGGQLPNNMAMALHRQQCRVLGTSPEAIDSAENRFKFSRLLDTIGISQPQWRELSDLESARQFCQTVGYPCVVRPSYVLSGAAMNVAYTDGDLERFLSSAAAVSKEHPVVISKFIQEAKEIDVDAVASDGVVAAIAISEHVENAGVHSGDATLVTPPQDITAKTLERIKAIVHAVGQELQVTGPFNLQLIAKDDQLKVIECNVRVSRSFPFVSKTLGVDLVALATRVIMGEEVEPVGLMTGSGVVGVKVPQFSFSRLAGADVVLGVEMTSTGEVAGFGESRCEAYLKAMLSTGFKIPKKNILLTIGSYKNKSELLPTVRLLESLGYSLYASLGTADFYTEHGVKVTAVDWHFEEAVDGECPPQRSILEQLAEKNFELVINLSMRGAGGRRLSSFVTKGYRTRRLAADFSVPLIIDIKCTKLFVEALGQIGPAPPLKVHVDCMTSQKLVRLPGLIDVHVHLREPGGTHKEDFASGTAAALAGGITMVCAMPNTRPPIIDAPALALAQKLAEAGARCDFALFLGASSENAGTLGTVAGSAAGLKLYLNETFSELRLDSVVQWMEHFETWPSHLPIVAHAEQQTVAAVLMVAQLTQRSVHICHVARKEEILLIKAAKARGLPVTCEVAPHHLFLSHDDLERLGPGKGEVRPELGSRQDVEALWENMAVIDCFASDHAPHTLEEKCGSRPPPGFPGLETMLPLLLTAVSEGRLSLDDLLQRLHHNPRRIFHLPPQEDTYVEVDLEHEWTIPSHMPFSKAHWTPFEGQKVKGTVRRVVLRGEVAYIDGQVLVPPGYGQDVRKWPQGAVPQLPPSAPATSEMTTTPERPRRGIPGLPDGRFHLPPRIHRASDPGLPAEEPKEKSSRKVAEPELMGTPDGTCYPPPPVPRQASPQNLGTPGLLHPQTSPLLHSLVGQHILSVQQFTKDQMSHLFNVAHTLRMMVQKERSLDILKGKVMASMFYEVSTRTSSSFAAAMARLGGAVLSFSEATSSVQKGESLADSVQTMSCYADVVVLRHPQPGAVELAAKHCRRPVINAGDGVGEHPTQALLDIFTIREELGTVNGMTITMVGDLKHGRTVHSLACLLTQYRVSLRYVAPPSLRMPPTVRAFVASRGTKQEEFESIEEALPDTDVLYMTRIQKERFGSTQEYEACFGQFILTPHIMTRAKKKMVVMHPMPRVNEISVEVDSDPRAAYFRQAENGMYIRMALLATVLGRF
UniProt Q96RR4, whole entry, looked up: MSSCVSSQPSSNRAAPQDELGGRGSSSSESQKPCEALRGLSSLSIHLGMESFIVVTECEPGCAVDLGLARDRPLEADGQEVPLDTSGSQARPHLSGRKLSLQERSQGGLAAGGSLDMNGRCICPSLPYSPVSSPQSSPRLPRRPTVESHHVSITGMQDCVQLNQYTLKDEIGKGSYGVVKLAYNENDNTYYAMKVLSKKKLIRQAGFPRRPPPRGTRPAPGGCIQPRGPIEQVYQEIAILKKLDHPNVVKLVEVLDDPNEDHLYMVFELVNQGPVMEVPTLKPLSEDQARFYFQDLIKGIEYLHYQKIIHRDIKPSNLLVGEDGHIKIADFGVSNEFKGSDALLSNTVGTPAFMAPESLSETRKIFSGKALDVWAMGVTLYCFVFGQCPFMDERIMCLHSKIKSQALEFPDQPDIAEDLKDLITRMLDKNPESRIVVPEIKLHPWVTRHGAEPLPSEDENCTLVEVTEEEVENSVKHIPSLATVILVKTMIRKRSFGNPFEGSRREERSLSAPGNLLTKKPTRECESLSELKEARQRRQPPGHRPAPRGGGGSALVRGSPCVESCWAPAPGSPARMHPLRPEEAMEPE
UniProt P00915: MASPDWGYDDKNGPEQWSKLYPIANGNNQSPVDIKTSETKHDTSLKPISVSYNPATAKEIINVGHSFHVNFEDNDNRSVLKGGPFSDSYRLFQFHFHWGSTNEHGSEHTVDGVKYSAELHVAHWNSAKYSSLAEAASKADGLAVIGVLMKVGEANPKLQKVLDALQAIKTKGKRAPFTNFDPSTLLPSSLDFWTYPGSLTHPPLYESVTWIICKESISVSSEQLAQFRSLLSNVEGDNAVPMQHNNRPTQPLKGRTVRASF
UniProt Q10589, whole entry, looked up: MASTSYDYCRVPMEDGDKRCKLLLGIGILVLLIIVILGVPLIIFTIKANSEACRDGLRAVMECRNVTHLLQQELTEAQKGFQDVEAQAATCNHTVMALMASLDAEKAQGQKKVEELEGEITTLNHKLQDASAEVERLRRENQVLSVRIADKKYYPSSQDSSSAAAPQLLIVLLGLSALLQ
UniProt Q13895: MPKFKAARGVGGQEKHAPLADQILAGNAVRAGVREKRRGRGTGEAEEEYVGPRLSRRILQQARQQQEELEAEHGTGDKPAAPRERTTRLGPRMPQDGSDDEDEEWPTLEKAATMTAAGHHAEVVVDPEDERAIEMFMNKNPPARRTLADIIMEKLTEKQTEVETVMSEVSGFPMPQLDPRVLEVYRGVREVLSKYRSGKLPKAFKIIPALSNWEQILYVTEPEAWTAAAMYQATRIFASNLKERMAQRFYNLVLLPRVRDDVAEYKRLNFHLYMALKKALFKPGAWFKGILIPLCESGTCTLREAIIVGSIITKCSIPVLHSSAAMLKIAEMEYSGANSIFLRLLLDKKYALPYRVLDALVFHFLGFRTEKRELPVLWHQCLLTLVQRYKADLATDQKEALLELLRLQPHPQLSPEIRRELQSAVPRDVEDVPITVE

Legend:
Test in all cases: log2 fold change, soluble protein after heating vs DMSO (PISA); higher = thermal stabilisation; K562 cells, 10 uM, 30 min; active = over 0.2 and 3.5 SD of the protein, either way, in both replicates (recomputed)
[1] = compound: CN1CCN(CCOc2cc(OC3CCOCC3)c3c(Nc4c(Cl)ccc5c4OCO5)ncnc3c2)CC1 [saracatinib]
Outline: (§1)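 For each measurement, 10 μM compound was applied for 30 min to K562 cells at 2×10^6 cells/mL. Aliquots were heated for 3 min across 48°C-58°C, pooled, and extracted in PBS with 0.5% NP-40 at 4°C; the supernatant after 21,000xg for 90 min was soluble protein. This was quantified by TMTpro 16plex LC-MS/MS with channel sums equalised, and thermal stability was reported relative to control samples from duplicates, on a log2 fold-change scale.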

[2] = compound: CN1CCN(c2nc(C3=C(c4c[nH]c5ccccc45)C(=O)NC3=O)c3ccccc3n2)CC1 [sotrastaurin]
Outline: as §1

[3] = compound: CN1CC[C@H](c2c(O)cc(O)c3c(=O)cc(-c4ccccc4Cl)oc23)[C@H](O)C1 [alvocidib]
Outline: as §1

[4] = compound: CN1CCc2c(c3ccccc3n2Cc2ccc(C(=O)NO)cc2)C1 [Tubastatin A]
Outline: as §1

[5] = compound: CNC(=O)C1=CC=CC=C1NC2=NC(=NC=C2Cl)NC3=C(C=C(C=C3)N4CCOCC4)OC
Outline: as §1

[6] = compound: CNC(=O)c1ccc(Nc2ncc(C(F)(F)F)c(NCc3nccnc3N(C)S(C)(=O)=O)n2)cc1 [defactinib]
Outline: as §1

[7] = compound: CNc1nc(-c2ccc3c(N)n[nH]c3c2)cc(N2C[C@@H](C(=O)NC3CCCCC3)CC[C@H]2C)n1
Outline: as §1

[8] = compound: COC(=O)[C@H](CCSC)NC(=O)C1=C(C=C(C=C1)NC[C@H](CS)N)C2=CC=CC=C2
Outline: as §1

[9] = compound: COC1=CC=C(C=C1)CN2C=CC3=C2C=C(C=C3)C(=O)NO
Outline: as §1

[10] = compound: CON(C)C(=O)N1N=C(c2cc(F)ccc2F)S[C@@]1(CCCN)c1ccccc1 [filanesib]
Outline: as §1

[11] = compound: CO[C@H]1C[C@@H]2CC[C@@H](C)[C@@](O)(O2)C(=O)C(=O)N2CCCC[C@H]2C(=O)O[C@H]([C@H](C)C[C@@H]2CC[C@H](n3cnnn3)[C@H](OC)C2)CC(=O)[C@H](C)/C=C(\C)[C@@H](O)[C@@H](OC)C(=O)[C@H](C)C[C@H](C)/C=C/C=C/C=C/1C [zotarolimus]
Outline: as §1

[12] = compound: COc1cc(C(=O)O)ccc1NC(=O)[C@@H]1N[C@@H](CC(C)(C)C)[C@](C#N)(c2ccc(Cl)cc2F)[C@H]1c1cccc(Cl)c1F [idasanutlin]
Outline: as §1

[13] = compound: COc1cc(Nc2ncc3c(n2)-c2ccc(Cl)cc2C(c2c(F)cccc2OC)=NC3)ccc1C(=O)O [alisertib]
Outline: as §1

[14] = compound: COc1cc2nc(-c3cc(F)ccc3O)nc(N[C@@H]3CNC[C@H]3C(C)(C)O)c2cc1OC
Outline: as §1

[15] = compound: COc1cc2ncnc(Nc3ccc(F)c(Cl)c3)c2cc1OCCCN1CCOCC1 [gefitinib]
Outline: as §1

[16] = compound: COc1cccc2cc(-c3nc([C@H]4CC[C@H](C(=O)O)CC4)n4ncnc(N)c34)[nH]c12
Outline: as §1

[17] = compound: CS(=O)(=O)CCNCc1ccc(-c2ccc3ncnc(Nc4ccc(OCc5cccc(F)c5)c(Cl)c4)c3c2)o1 [lapatinib]
Outline: as §1

[18] = compound: CNCc1ccc(-c2[nH]c3cc(F)cc4c3c2CCNC4=O)cc1 [rucaparib]
Outline: as §1

[19] = compound: COC(=O)N[C@@H](C)CNc1nccc(-c2cn(C(C)C)nc2-c2cc(Cl)cc(NS(C)(=O)=O)c2F)n1 [encorafenib]
Outline: as §1

[20] = compound: CS(=O)(=O)N1CCN(Cc2cc3nc(-c4cccc5[nH]ncc45)nc(N4CCOCC4)c3s2)CC1 [pictilisib]
Outline: as §1

| Target | log2 fold change [1] | log2 fold change [2] | log2 fold change [3] | log2 fold change [4] | log2 fold change [5] | log2 fold change [6] | log2 fold change [7] | log2 fold change [8] | log2 fold change [9] | log2 fold change [10] | log2 fold change [11] | log2 fold change [12] | log2 fold change [13] | log2 fold change [14] | log2 fold change [15] | log2 fold change [16] | log2 fold change [17] | log2 fold change [18] | log2 fold change [19] | log2 fold change [20] |
| --- | --- | --- | --- | --- | --- | --- | --- | --- | --- | --- | --- | --- | --- | --- | --- | --- | --- | --- | --- | --- |
| C9orf85 isoform 1 (UniProt Q96MD7) | inactive: 0.019 | inactive: -0.061 | inactive: -0.084 | inactive: 0.067 | inactive: -0.098 | inactive: -0.022 | inactive: 0.134 | inactive: 0.019 | inactive: 0.127 | inactive: 0.067 | inactive: 0.052 | inactive: 0.199 | inactive: 0.231 | inactive: -0.114 | inactive: 0.235 | inactive: -0.014 | inactive: 0.143 |  |  |  |
| BZW2 (UniProt Q9Y6E2) | inactive: -0.007 | inactive: -0.032 |  | inactive: -0.004 | inactive: -0.006 | inactive: -0.057 | inactive: 0.001 | inactive: -0.026 | inactive: -0.029 | inactive: -0.05 | inactive: 0.02 | inactive: -0.126 | inactive: -0.056 | inactive: 0.011 | inactive: -0.009 | inactive: 0.023 | inactive: -0.055 | inactive: -0.022 | inactive: 0.058 | inactive: -0.034 |
| C16orf58 (UniProt Q96GQ5) | inactive: 0.042 | inactive: 0.04 |  | inactive: -0.003 | inactive: -0.005 | inactive: -0.031 | inactive: -0.063 | inactive: -0.02 | inactive: -0.059 | inactive: -0.148 | inactive: -0.043 | inactive: -0.053 | inactive: -0.009 | inactive: -0.009 | inactive: 0.044 | inactive: 0.037 | inactive: 0.004 | inactive: -0.012 | inactive: 0.051 | inactive: 0.015 |
| C7 (UniProt P10643) | inactive: 0.166 | inactive: 0.027 | inactive: -0.122 | inactive: -0.515 | inactive: 0.06 | inactive: -0.024 | inactive: -0.063 | inactive: 0.275 | inactive: -0.042 | inactive: 0.286 | inactive: -0.276 | inactive: 0.182 |  | inactive: -0.202 | inactive: -0.006 |  | inactive: -0.021 | inactive: -0.346 | inactive: 0.057 | inactive: -0.057 |
| C3orf38 (UniProt Q5JPI3) | inactive: 0.115 | inactive: 0.105 | inactive: 0.005 | inactive: -0.225 |  | inactive: -0.208 | inactive: -0.015 | inactive: -0.159 | inactive: 0.102 | inactive: 0.215 | inactive: 0.006 | inactive: 0.172 | inactive: -0.04 | inactive: 0.094 | inactive: -0.046 | inactive: -0.093 | inactive: -0.074 | inactive: -0.234 | inactive: -0.03 |  |
| CAMSAP1 isoform 3 (UniProt Q5T5Y3) | inactive: -0.084 | inactive: -0.175 |  | inactive: 0.071 | inactive: -0.191 | inactive: 0.051 | inactive: -0.071 | inactive: 0.017 | inactive: 0.011 | inactive: -0.015 | inactive: 0.045 | inactive: 0.091 | inactive: 0.039 | inactive: 0.169 | inactive: -0.034 | inactive: 0.056 | inactive: 0.095 | inactive: 0.048 | inactive: 0.065 | inactive: 0.118 |
| CAD (UniProt P27708) | inactive: -0.112 | inactive: 0.022 |  | inactive: -0.044 | inactive: -0.211 | inactive: 0.097 | inactive: 0.052 | inactive: -0.051 | inactive: 0.019 | inactive: -0.054 | inactive: -0.014 | inactive: -0.03 | inactive: -0.058 | inactive: -0.011 | inactive: -0.044 | inactive: 0.047 | inactive: -0.031 | inactive: 0.132 | inactive: 0.052 | inactive: -0.04 |
| CAMKK2 (UniProt Q96RR4) | inactive: 0.03 | inactive: -0.042 |  | inactive: 0.105 | inactive: 0.36 | inactive: -0.104 | inactive: -0.101 | inactive: 0.057 | inactive: -0.063 | inactive: 0.085 | inactive: -0.077 | inactive: -0.091 | inactive: -0.377 | inactive: 0.12 | inactive: 0.019 | inactive: 0.015 | inactive: 0.025 | inactive: -0.084 | inactive: 0.057 | inactive: 0.035 |
| BTD isoform 3 (UniProt P43251) | inactive: 0.087 | inactive: 0.042 | inactive: -0.051 | inactive: -0.084 | inactive: -0.059 | inactive: -0.06 | inactive: 0 | inactive: 0.252 | inactive: -0.048 | inactive: 0.054 | inactive: -0.032 |  | inactive: -0.094 | inactive: 0.071 | inactive: 0.038 | inactive: 0.02 | inactive: -0.043 | inactive: 0.043 | inactive: -0.102 |  |
| CAAP1 (UniProt Q9H8G2) | inactive: -0.031 | inactive: 0.011 | inactive: -0.112 | inactive: -0.004 | inactive: -0.041 | inactive: -0.001 | inactive: -0.177 | inactive: 0.032 | inactive: -0.118 | inactive: 0.18 | inactive: -0.074 | inactive: 0.119 |  | inactive: -0.033 | inactive: -0.17 |  | inactive: 0.055 | inactive: 0.046 | inactive: -0.029 |  |
| C4A (UniProt P0C0L4) | inactive: 0.108 | inactive: 0.268 |  | inactive: -0.039 | inactive: -0.021 | inactive: 0.072 | inactive: -0.188 | inactive: -0.039 | inactive: 0.042 | inactive: 0.014 | active: -0.615 | inactive: 0.068 | inactive: -0.005 | inactive: 0.001 | inactive: -0.198 | inactive: 0.175 | inactive: -0.078 | inactive: -0.075 | inactive: -0.047 | inactive: -0.291 |
| C12orf73 (UniProt Q69YU5) | inactive: 0.018 | inactive: 0.087 | inactive: 0.03 | inactive: -0.133 | inactive: -0.02 | inactive: 0.062 | inactive: -0.072 | inactive: 0.127 | inactive: -0.032 | inactive: 0.062 | inactive: 0.074 |  | inactive: -0.119 | inactive: -0.12 | inactive: 0.049 | inactive: 0.01 | inactive: -0.05 | inactive: 0.002 | inactive: -0.068 | inactive: -0.08 |
| CA1 (UniProt P00915) | inactive: 0.014 | inactive: -0.001 |  | inactive: -0.013 | inactive: 0.009 | inactive: -0.057 | inactive: -0.016 | inactive: 0.004 | inactive: -0.022 | inactive: -0.002 | inactive: -0.006 | inactive: -0.044 | inactive: -0.032 | inactive: -0.026 | inactive: 0.022 | inactive: 0.018 | inactive: -0.045 | inactive: -0.036 | inactive: -0.002 | inactive: 0.072 |
| BST2 (UniProt Q10589) | inactive: 0.003 | inactive: -0.097 |  | inactive: -0.055 | inactive: -0.063 | inactive: 0.03 | inactive: -0.07 | inactive: 0.012 | inactive: -0.064 | inactive: -0.05 | inactive: 0.041 | inactive: -0.044 | inactive: -0.059 | inactive: -0.028 | inactive: -0.022 | inactive: 0.007 | inactive: 0.038 | inactive: -0.008 | inactive: 0 | inactive: 0.036 |
| BYSL (UniProt Q13895) | inactive: -0.042 | inactive: -0.101 |  | inactive: 0.136 | inactive: 0.034 | inactive: -0.004 | inactive: 0.094 | inactive: -0.073 | inactive: -0.033 | inactive: 0.078 | inactive: 0.065 | inactive: -0.057 | inactive: 0.022 | inactive: 0.207 | inactive: -0.03 | inactive: -0.057 | inactive: 0.032 | inactive: -0.004 | inactive: 0.034 | inactive: -0.022 |
| BTAF1 (UniProt O14981) | inactive: 0.087 | inactive: 0.001 |  | inactive: -0.041 | inactive: -0.027 | inactive: -0.074 | inactive: -0.012 | inactive: 0.007 | inactive: 0.018 | inactive: -0.006 | inactive: -0.004 | inactive: -0.095 | inactive: 0.175 | inactive: 0.093 | inactive: -0.045 | inactive: -0.028 | inactive: -0.01 | inactive: -0.089 | inactive: 0.026 | inactive: -0.032 |
| BUD13 (UniProt Q9BRD0) | inactive: -0.025 | inactive: -0.061 | inactive: 0.034 | inactive: 0.042 | inactive: 0.046 | inactive: -0.021 | inactive: -0.056 | inactive: 0.091 | inactive: -0.234 | inactive: 0.313 | inactive: -0.039 | inactive: 0.3 | inactive: -0.184 | inactive: -0.142 | inactive: -0.09 | inactive: -0.007 | inactive: 0.114 |  |  | inactive: -0.037 |

4 entries from above in a different format:
Target	log2 fold change [1]	log2 fold change [2]	log2 fold change [3]	log2 fold change [4]	log2 fold change [5]	log2 fold change [6]	log2 fold change [7]	log2 fold change [8]	log2 fold change [9]	log2 fold change [10]	log2 fold change [11]	log2 fold change [12]	log2 fold change [13]	log2 fold change [14]	log2 fold change [15]	log2 fold change [16]	log2 fold change [17]	log2 fold change [18]	log2 fold change [19]	log2 fold change [20]
CAAP1 (UniProt Q9H8G2)	inactive: -0.031	inactive: 0.011	inactive: -0.112	inactive: -0.004	inactive: -0.041	inactive: -0.001	inactive: -0.177	inactive: 0.032	inactive: -0.118	inactive: 0.18	inactive: -0.074	inactive: 0.119		inactive: -0.033	inactive: -0.17		inactive: 0.055	inactive: 0.046	inactive: -0.029	
C4A (UniProt P0C0L4)	inactive: 0.108	inactive: 0.268		inactive: -0.039	inactive: -0.021	inactive: 0.072	inactive: -0.188	inactive: -0.039	inactive: 0.042	inactive: 0.014	active: -0.615	inactive: 0.068	inactive: -0.005	inactive: 0.001	inactive: -0.198	inactive: 0.175	inactive: -0.078	inactive: -0.075	inactive: -0.047	inactive: -0.291
C12orf73 (UniProt Q69YU5)	inactive: 0.018	inactive: 0.087	inactive: 0.03	inactive: -0.133	inactive: -0.02	inactive: 0.062	inactive: -0.072	inactive: 0.127	inactive: -0.032	inactive: 0.062	inactive: 0.074		inactive: -0.119	inactive: -0.12	inactive: 0.049	inactive: 0.01	inactive: -0.05	inactive: 0.002	inactive: -0.068	inactive: -0.08
CA1 (UniProt P00915)	inactive: 0.014	inactive: -0.001		inactive: -0.013	inactive: 0.009	inactive: -0.057	inactive: -0.016	inactive: 0.004	inactive: -0.022	inactive: -0.002	inactive: -0.006	inactive: -0.044	inactive: -0.032	inactive: -0.026	inactive: 0.022	inactive: 0.018	inactive: -0.045	inactive: -0.036	inactive: -0.002	inactive: 0.072
